Measured values from PubChem BioAssay AID504467 (National Center for Advancing Translational Sciences (NCATS), 2011).
The whole screen tested about 330,000 compounds, of which about 7,700 (2.3%) were called active. The shares of active, inactive and inconclusive entries below differ from those in the screen. The call rests on the fitted dose curve; in most records, active means well fitted inhibition curve with a large enough effect; inconclusive means small, poorly fitted or top-dose-only effect, or effect the other way; inactive means flat fitted curve, though single readings scatter. Potencies of inconclusive entries are doubtful fits and often do not repeat.
On the % scale 0 is the no-effect control and ±100 the full control effect; potency means the concentration at half of the fitted maximal effect.

Experiment: qHTS screen for small molecules that inhibit ELG1-dependent DNA repair in human embryonic kidney (HEK293T) cells expressing luciferase-tagged ELG1; further: nearly all actives have a fitted effect of over 55% in size
Details: HEK293T ELG1-luciferase reporter, luminescence, 16 h, DNA damage induced by 5-fluorouridine; activity change, negative = inhibition: at 46.1 µM (top of the series)
How it was run: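 Step one: seed 2,000 cells per well. Step two: pin-transfer compound or DMSO alongside 5-fluorouridine. Step three: incubate 16 hr, 37 °C, 5% CO2. Step four: add ONE-Glo, wait 30 min, read luminescence.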
With `CC(C)(C)NC(=O)C(=O)NNC(=O)c1cccc(F)c1` the Potency was inconclusive: 18.3 µM [activator, partial curve]. For `O=C(COC(=O)c1ccc[nH]c1=O)NCCc1ccc(Cl)cc1Cl`, the Potency was inconclusive: 3.66 µM [activator, full curve]. With `c1ccc2cc3c(NCCN4CCOCC4)ccnc3cc2c1` the Potency was inconclusive: 18.4 µM [inhibitor, single point]. For `Cc1cccc(NC(=O)c2sc3nc4c(c(-c5cccs5)c3c2N)CN(C)CC4)c1`, the Potency was inconclusive: 23.1 µM [inhibitor, single point]. In the case of `CCN(CC(=O)NCc1cccs1)C(=O)Cc1ccc(C)c(C)c1`, the Potency is reported as “inactive”. In the case of `CC(C)(C)Sc1ccc(/C=N/O)cc1[N+](=O)[O-]`, the Potency is reported as “inactive”. With `O=C(Nc1ccc2nc3n(c(=O)c2c1)CCCCC3)c1ccccn1` the Potency was inconclusive: 4.61 µM [activator, partial curve]. In the case of `Cn1c(-n2c(CCCN3C(=O)c4ccccc4C3=O)nc3ccccc3c2=O)nc2ccccc21`, the Potency is reported as inconclusive: 16.4 µM [inhibitor, single point]. In the case of `COC(=O)c1ccccc1N=Nc1c(C)noc1C`, the Potency is reported as inconclusive: 18.3 µM [activator, single point]. With `Cc1cc(C(=O)OCC(=O)Nc2ncc(C(F)(F)F)cc2Cl)c(C)o1` the Potency was inconclusive: 13 µM [activator, partial curve, poor fit]. In the case of `CCN(CC)S(=O)(=O)c1ccc(-c2cn3cc(Cl)ccc3n2)cc1`, the Potency is reported as “inactive”. For `O=C(CN1CCN(c2ccccc2O)CC1)Nc1ccnn1C1CCCC1`, the Potency was inconclusive: 32.6 µM [inhibitor, single point]. With `O=C(NC1CCCCC1)C(c1cccs1)N(C(=O)C(F)(F)F)c1ccccc1` (stereo unspecified) the Potency was “inactive”. For `COc1ccc(N2CCN(C(c3cccs3)C(C)NC(=O)c3ccc4c(c3)OCO4)CC2)cc1` (stereo unspecified), the Potency was inconclusive: 20.6 µM [inhibitor, single point]. In the case of `COc1ccccc1CNC(=O)C(C)Sc1ccc(C)cc1` (stereo unspecified), the Potency is reported as “inactive”. For `Cn1c(N)c(C(=O)COC(=O)c2ccnc3ccccc23)c(=O)n(C)c1=O`, the Potency was “inactive”. In the case of `CC(C)c1ccc(N(C(=O)c2snc(C(N)=O)c2N)C(C(=O)NCC2CCCO2)c2ccc(N(C)C)cc2)cc1` (stereo unspecified), the Potency is reported as inconclusive: 23.1 µM [inhibitor, single point]. In the case of `Cc1nn(Cc2c(F)c(F)c(F)c(F)c2F)c(C)c1NC(=O)c1ccc(COc2ccc(F)cc2)o1`, the Potency is reported as inconclusive: 25.9 µM [inhibitor, partial curve]. In the case of `O=[N+]([O-])c1cc(F)c2cccnc2c1O`, the Potency is reported as active: 20.6 µM. In the case of `COc1ccccc1/C=C/C(=O)Nc1ccc2c(c1)OCCO2`, the Potency is reported as inconclusive: 1.03 µM [activator, partial curve]. In the case of `Cc1ccc2nc(-c3ccc4c(c3)NC(=O)CO4)cn2c1`, the Potency is reported as inconclusive: 2.06 µM [activator, full curve]. With `Cc1nc(NC(=O)CSc2nnc3ccccn23)c(Cl)cc1Cl` the Potency was “inactive”. With `CCCc1ccc(C(=O)O/N=C(\N)c2ccccn2)cc1` the Potency was inconclusive: 0.231 µM [activator, full curve]. In the case of `COc1ccc(NC(=O)COC(=O)c2cc(Cl)ccc2O)cc1S(=O)(=O)N1CCCCC1`, the Potency is reported as inconclusive: 9.2 µM [inhibitor, partial curve]. With `COCCCN1CN=C(Nc2nc3ccccc3o2)NC1` the Potency was inconclusive: 20.6 µM [activator, partial curve]. For `O=C(Nc1cc(Oc2ccccc2)cc([N+](=O)[O-])c1)C12CC3CC(C1)CC(n1cnc(Cl)n1)(C3)C2`, the Potency was inconclusive: 16.4 µM [inhibitor, partial curve]. With `Cc1cccc(CC(=O)NC2CCCCCC2)c1` the Potency was inconclusive: 18.3 µM [activator, partial curve]. In the case of `CCCC(=O)Nc1cccc(C(=O)Nc2ccccc2OCC)c1`, the Potency is reported as inconclusive: 18.3 µM [inhibitor, partial curve, poor fit]. For `O=C(CSc1nnnn1-c1cccnc1)Nc1ccccc1F`, the Potency was “inactive”. In the case of `CCCc1ccc(OCCNC(C)=O)cc1`, the Potency is reported as inconclusive: 18.4 µM [activator, single point]. With `COc1ccc(-c2ccc(C(=S)N3CCN(C(C)=O)CC3)o2)cc1` the Potency was inconclusive: 4.11 µM [activator, single point]. For `CCOC(=O)c1cnc(-n2nc(C)cc2C)nc1Nc1cccc(C(=O)O)c1`, the Potency was inconclusive: 16.4 µM [activator, single point]. For `CC(=O)c1c(C)n(-c2ccccc2)c2ccc(O)cc12`, the Potency was inconclusive: 9.2 µM [inhibitor, partial curve, poor fit]. With `CCN(CC)CCCn1c2c(c(SCC(=O)Nc3cccc(C(C)=O)c3)nc1=O)CCC2` the Potency was “inactive”. In the case of `O=S1(=O)CC(O)C(NCc2ccco2)C1` (stereo unspecified), the Potency is reported as “inactive”. For `CCOc1ccc(/C=N/NC(=O)Cc2csc(Nc3cccc(C(F)(F)F)c3)n2)cc1`, the Potency was inconclusive: 29.1 µM [inhibitor, single point]. With `COc1ccc2nc(NC(=O)c3ccc(Br)s3)sc2c1` the Potency was inconclusive: 5.17 µM [activator, partial curve]. For `c1cncc(-c2nc(NCC3COc4ccccc4O3)c3ccccc3n2)c1` (stereo unspecified), the Potency was active: 14.6 µM. In the case of `Cc1ccc(NC(=O)CC2SC(=O)N(c3ccccc3)C2=O)cc1` (stereo unspecified), the Potency is reported as “inactive”. With `CCO/N=C1\C(=O)N(c2ccccc2)c2ccccc21` the Potency was “inactive”. In the case of `CCN(CC)S(=O)(=O)c1ccc(NC(=O)c2cc(=O)[nH]c3ccccc23)cc1`, the Potency is reported as inconclusive: 29.1 µM [inhibitor, single point]. With `Nc1cc2c3c(cccc3c1)C(=O)N(CCN1CCCC1)C2=O` the Potency was inconclusive: 29.1 µM [inhibitor, single point]. For `O=C(NNc1ccc(C(F)(F)F)cc1[N+](=O)[O-])c1ccc(NS(=O)(=O)c2ccc(F)cc2)cc1`, the Potency was active: 20.6 µM. For `Cc1nn(-c2ccc(C(=O)Nc3nnc(C4CC4)s3)cc2)c(C)c1Cl`, the Potency was “inactive”. For `CCOC(=O)C1=C(COC(=O)/C=C/c2ccc(OC)cc2)NC(=O)NC1C` (stereo unspecified), the Potency was inconclusive: 25.9 µM [inhibitor, partial curve, poor fit]. In the case of `COc1ccc(CCNC(=O)CCCn2c(=O)c3cccn3c3cccnc32)c(OC)c1`, the Potency is reported as inconclusive: 29.1 µM [inhibitor, single point]. With `CC1CC2(C)Oc3ccccc3CC2C(C)C1CNCCCN(C)C` (stereo unspecified) the Potency was inconclusive: 29.1 µM [inhibitor, single point]. In the case of `O=C1c2cccc3cccc(c23)C(=O)N1CCCN1CCN(c2ccc(F)cc2)CC1`, the Potency is reported as inconclusive: 23.1 µM [inhibitor, single point]. With `Cc1cccc(N(CC(=O)NC2CCCCC2)C(=O)c2ccc(C)s2)c1` the Potency was “inactive”. With `CC(C)OC(=O)c1cccc2c1C(=O)c1ccccc1-2` the Potency was inconclusive: 20.6 µM [activator, partial curve]. For `N#Cc1ccc(CN2CCN(C(=O)c3cccc(S(=O)(=O)N4CCCCCC4)c3)CC2)cc1`, the Potency was inconclusive: 11.6 µM [inhibitor, partial curve]. With `O=C(NC(Cc1ccccc1)C(=O)O)/C(=C/c1ccc(F)cc1)NC(=O)c1ccccc1` (stereo unspecified) the Potency was inconclusive: 14.6 µM [activator, partial curve, poor fit]. With `Cc1cccc(OCc2nnc(SCC(=O)N3CCN(c4ccccc4)CC3)o2)c1C` the Potency was “inactive”. In the case of `O=C(NCCO)c1cccc(Cl)c1`, the activity change, negative = inhibition is reported as inconclusive: 82% [activator]. With `Cc1ccccc1C(=O)N1CCN(c2ccc([N+](=O)[O-])c(NCc3ccco3)c2)CC1` the Potency was inconclusive: 5.17 µM [inhibitor, partial curve, poor fit]. With `O=C(CCc1ccccc1)Nc1cc2c(cc1C(=O)O)OCCCO2` the Potency was inconclusive: 18.3 µM [activator, single point]. With `O=C(NC1CC1)c1sc2ccccc2c1Cl` the Potency was inconclusive: 9.2 µM [activator, partial curve]. With `COc1ccccc1-c1cc(C(=O)NC(C)C)no1` the Potency was inconclusive: 16.4 µM [activator, partial curve]. For `CC(=O)N1CCc2ccc(S(=O)(=O)N3CCN(C)CC3)cc21`, the Potency was “inactive”. In the case of `O=C(c1ccccc1)c1ccc(Oc2ncccn2)cc1`, the Potency is reported as inconclusive: 9.2 µM [activator, partial curve]. With `O=C(O)c1ccccc1N/N=C/c1cc(Br)cc(Br)c1O` the Potency was inconclusive: 10.3 µM [activator, partial curve]. In the case of `CCC(C)NC(=O)/C=C1\Sc2ccccc2NC1=O` (stereo unspecified), the Potency is reported as “inactive”. In the case of `COCCOC(=O)C1=C(C)NC(=O)NC1c1ccco1` (stereo unspecified), the Potency is reported as inconclusive: 0.206 µM [activator, partial curve, poor fit]. With `O=C(NC(=S)Nc1ccc(N2CCCC2)cc1)c1ccccc1[N+](=O)[O-]` the Potency was “inactive”. In the case of `Cc1noc(C)c1C(=O)Nc1nc2ccc(Cl)cc2s1`, the Potency is reported as inconclusive: 10.3 µM [activator, partial curve, poor fit]. For `CCn1cc(C(=O)OCc2ccccc2)c(=O)c2ccc(C)nc21`, the Potency was “inactive”. In the case of `CCOc1ccccc1OCCC(=O)N1CCN(S(=O)(=O)c2ccccc2[N+](=O)[O-])CC1`, the Potency is reported as inconclusive: 29.1 µM [inhibitor, single point]. In the case of `COc1ccc(C(c2nnnn2C2CCCC2)N2CCN(c3ccccc3)CC2)cc1` (stereo unspecified), the Potency is reported as “inactive”. With `COC(=O)c1cc(NC(=O)c2cc(-c3ccc(C(F)(F)F)cc3)oc2C(F)(F)F)ccc1N1CCOCC1` the Potency was inconclusive: 25.9 µM [inhibitor, partial curve]. With `O=C(COC(=O)C1=COCCO1)Nc1cc(C(F)(F)F)ccc1Cl` the Potency was “inactive”. For `COc1ccc(CCNC(=O)COC(=O)c2ccccn2)cc1`, the Potency was “inactive”.
